Results are given in words; binding and its absence hold for the method and conditions named. Binding seen in cells or lysates may run through a third protein. A yes stands for co-enrichment or nearness to the bait. Other partners may have been found. A no says only that the protein was not detected with the bait.
These molecules were tested against GFP^LAP:VPS-37, fusion of VPS-37 with a GFP containing tandem affinity purification tag (C. elegans) (UniProt O44158) (assay: affinity purification with mass spectrometry; GFP^LAP:VPS-37 isolated from C. elegans embryo extracts with anti-GFP antibodies, GFP removed by protease cleavage, re-isolated on S-protein agarose and eluted; solution mass spectrometry of the eluate).

Protein sequences, listed by entry. Tags and fused reporters are not part of them. Lines headed by an entry give the natural chain unless they say otherwise; changes in a name come on top.
UniProt O44158: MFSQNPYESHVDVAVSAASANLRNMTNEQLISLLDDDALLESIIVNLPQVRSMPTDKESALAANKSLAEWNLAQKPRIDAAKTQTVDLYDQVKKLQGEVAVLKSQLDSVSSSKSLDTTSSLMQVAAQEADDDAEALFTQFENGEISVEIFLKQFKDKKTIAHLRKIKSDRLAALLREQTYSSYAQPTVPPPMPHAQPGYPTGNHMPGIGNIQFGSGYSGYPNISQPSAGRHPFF
UniProt Q22866: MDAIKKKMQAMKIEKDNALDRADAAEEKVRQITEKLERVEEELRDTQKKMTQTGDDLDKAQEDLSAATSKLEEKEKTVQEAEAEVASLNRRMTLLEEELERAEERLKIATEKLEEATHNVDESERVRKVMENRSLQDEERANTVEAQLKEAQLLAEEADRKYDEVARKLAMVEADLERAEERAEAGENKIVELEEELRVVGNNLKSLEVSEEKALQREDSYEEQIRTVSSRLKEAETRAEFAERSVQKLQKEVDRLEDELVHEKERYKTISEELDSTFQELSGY
UniProt Q17687: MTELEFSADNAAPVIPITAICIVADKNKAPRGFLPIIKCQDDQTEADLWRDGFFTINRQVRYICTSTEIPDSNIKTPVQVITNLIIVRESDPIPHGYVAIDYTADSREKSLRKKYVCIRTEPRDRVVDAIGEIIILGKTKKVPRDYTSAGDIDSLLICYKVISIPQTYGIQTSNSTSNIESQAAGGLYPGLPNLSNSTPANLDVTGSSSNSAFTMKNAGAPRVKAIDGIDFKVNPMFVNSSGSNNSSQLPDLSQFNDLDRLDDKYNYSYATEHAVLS

binding	Molecule
no binding	LEV-11 (from UniProt Q22866 1-284)
binds	MVB-12 (C. elegans, endogenous) (from UniProt Q17687)
binds	VPS-28 (recombinant C. elegans) (natural protein, UniProt Q9NA26 1-210, looked up, VPS-28, C. elegans; open reading frame amplified from N2 cDNA) MSSQNANLMREVRLFENHSEREQMENLSELFAVLNALEHLEKMFSRDHVSADEYKSECFKLIDQYKVTMRLVHGATSIEDFAKKYRLHCPAAIERIREGRPITVKDDQGNVLKHIASIVEQFITFLDALRLNTRAVDDLYPGLDDLYNAINTTSRVPIDAIVTTKVKKWHDRLSSMAASDEISDEDARQMIFDVESAYQAFNKALNELKH

Reference: publication PMC1978536, “MVB-12, a Fourth Subunit of Metazoan ESCRT-I, Functions in Receptor Downregulation” (PLoS ONE, 2007)
